# Measured values from the supplement of paper PMC3334620.
# Over roughly 33,000 sequences, “E-score (-0.5 to 0.5)” has its median near -0.0059; the highest 2% begin near 0.26. The list shows a part of the results.
# Biological target: T1, Cin5 (UniProt P40917)
# T1 sequence: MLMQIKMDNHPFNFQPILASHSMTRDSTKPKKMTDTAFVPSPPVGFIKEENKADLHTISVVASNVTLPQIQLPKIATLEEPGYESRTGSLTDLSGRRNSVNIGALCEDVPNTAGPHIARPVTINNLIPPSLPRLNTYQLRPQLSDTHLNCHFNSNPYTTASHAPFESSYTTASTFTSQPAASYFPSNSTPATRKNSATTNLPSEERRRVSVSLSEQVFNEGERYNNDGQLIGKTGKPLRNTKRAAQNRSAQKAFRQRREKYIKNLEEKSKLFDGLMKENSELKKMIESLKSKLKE
# Test: PBM E-score (8-mer binding enrichment) (E-score (-0.5 to 0.5)); higher = stronger / more preferred TF binding
# Conditions: protein concentration: 100 nM; construct: GST-full length
# In short: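 Detection of bound protein used fluorescent anti-GST, with scans normalised by masliner. The proteins were GST-tagged yeast transcription factors applied at about 100-200 nM to universal all-10-mer Agilent arrays made double-stranded by primer extension. Each ungapped eight-base word, pooled with its reverse complement, was scored with an E-score from the Universal PBM Analysis Suite.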
row,Sequence,PBM E-score
1,CACGGGGC,-0.17
2,CGCCGTGA,-0.0112
3,AGAGGTCA,-0.00668
4,GGGGGACA,-0.178
5,CGTGGAAG,0.129
6,CGCCTTAA,0.0262
7,CATTCACG,-0.098
8,GGTGTGGA,0.0929
9,GGACCTAA,-0.0416
10,ATCACTTC,0.196
11,AGACCCTC,-0.257
12,CCCTTAAC,-0.173
13,CACGGGCA,-0.189
14,CAGTAACC,-0.021
15,CTTCTGGC,-0.0974
16,AACTTTGT,0.13
17,GGTTATCA,0.0603
18,ATTCCCCA,0.202
19,CTTTTGTA,0.205
20,AGCGAGAC,-0.0151
21,CTCATGCC,-0.0927
22,ACGACGGG,-0.125
23,CCTGGACA,-0.24
24,GTGGTGAA,-0.0496
25,TGCAACCA,-0.0636

row,Sequence,PBM E-score
1,CCTAGTAC,-0.00963
2,CTGCACCA,-0.126
3,CCAGGCAA,-0.0365
4,CGTTCAAA,-0.0884
5,AGTTCCTG,-0.0496
6,CATTGCGA,0.0649
7,TGGCTCAA,-0.142
8,AATCTGAT,0.141
9,CCTCTTAC,0.0863
10,GGGTTAAC,-0.0533
11,AGCAAACA,0.227
12,CCAGGTCA,-0.21
13,CAGCGTCA,-0.26
14,GGATTCCC,-0.2
15,CATTGAGA,0.0475
16,ACTACCTA,0.096
17,CCCTAGCA,-0.0782
18,GCTCTGCC,-0.298
19,GTGTAGAA,-0.027
20,CTATAGAC,-0.149
21,CGACGAAG,-0.0192
22,AGCTTGGG,0.0734
23,GGTTTGCA,0.0992
24,AATTACCC,0.155
25,CCAAAGCA,0.0728

row,Sequence,PBM E-score
1,CCAGAACC,-0.0649
2,CAGAATGA,0.0817
3,GAAATGAA,0.275
4,ATCCTTGC,-0.0994
5,AACCATTG,-0.0545
6,AACGGGAC,-0.151
7,TGTTCTAA,0.174
8,CACCCCGA,-0.0528
9,GCACGTCC,-0.061
10,CGCGCGCA,0.227
11,ATCCTCGC,0.0113
12,ATAAGCAG,0.33
13,ACCCGGGC,-0.139
14,ACTATACC,0.0743
15,CGTACGGA,0.0565
16,CCTAGAGG,-0.25
17,GTTGACCA,0.0329
18,AAGTTACT,0.0383
19,TCAATACA,0.13
20,AGCGAGTG,0.00194
21,AATGAAAG,0.0582
22,AAGAGTCA,-0.12
23,ATAACACC,0.054
24,GTGTGCTA,0.00044
25,ATATCTCG,-0.0133

# Part of the list above in another layout.
row | Sequence | PBM E-score
7 | TGTTCTAA | 0.174
8 | CACCCCGA | -0.0528

# (listing goes on)

row,Sequence,PBM E-score
1,CATGCGTC,-0.134
2,AGCCGAGC,-0.0946
3,GAGCGAAC,-0.0644
4,CGGTATGA,0.0284
5,GAGCGTCA,-0.0972
6,GGTGTCTA,-0.005
7,GGGTGAAA,0.0803
8,AGATTAAG,0.0973
9,AGGGTAGC,-0.121
10,AGTCGACG,0.218
11,TGGCGCAA,-0.0192
12,GCCGTGAA,0.0821
13,ATTAACTC,0.17
14,AGAGCACC,-0.141
15,ACGTGATA,0.102
16,AAAAAAGA,0.0721
17,CTACTCGA,-0.00691
18,AATTAGCA,0.191
19,TCACCGAA,-0.0145
20,AGCGGACA,-0.0571
21,ACATAAAC,0.263
22,ATTAACGC,0.0183
23,TCGCCAGA,-0.105
24,AATAAACC,0.216
25,CATACTCG,0.189

# Pulled one by one from the entries so far:
row,Sequence,PBM E-score
18,ATTCCCCA,0.202
14,ACTATACC,0.0743

# Later entries

row,Sequence,PBM E-score
1,AGACAGCA,0.0211
2,ACCGAAAG,-0.129
3,AAGTGTTA,0.082
4,TACTACAA,0.257
5,CAGTCCAA,-0.117
6,ACACGAGA,-0.0454
7,ATGGGCCA,-0.0218
8,AATATAAC,0.244
9,AAATGGTT,0.0663
10,CGCCCGAC,-0.00944
11,CTAGTACC,-0.112
12,ACGAGAAG,-0.156
13,GTAGGATA,0.0391
14,AATCCACG,0.0163
15,TAAGCATA,0.252
16,ATGAAGTC,-0.0217
17,GTTTGTTA,0.0839
18,ATGCGCGG,0.00512
19,AAACTGCG,-0.0384
20,ATTGATCG,0.158
21,ATGGCAGA,0.0884
22,CCGCGCCG,-0.131
23,CCCGAGTC,-0.0328
24,ATGATGCG,0.0905
25,CAACGTGA,-0.107

row,Sequence,PBM E-score
1,TACGTTCA,0.113
2,CACACCAC,0.201
3,AATCCTTC,-0.0854
4,ACACCAAC,0.00809
5,GGTCCGAA,0.0406
6,ACGCTACA,0.2
7,GCGGAACC,0.139
8,TCACAGGA,0.0472
9,CCATCTTC,0.0837
10,TACATATA,0.243
11,AGACTAGA,-0.232
12,TGTTGTAA,0.205
13,CCTTGCCC,-0.0332
14,AGCCAAGG,0.0802
15,AAAACTTA,0.142
16,ATAACTTG,0.166
17,TCCGTCAA,0.17
18,ATTTACAA,0.151
19,AATAACCG,-0.00942
20,AATTTCAG,-0.0627
21,ACAGCAAG,0.204
22,ACGGCCCC,-0.341
23,AGGGGGGC,-0.479
24,AACTAGCC,-0.0212
25,GAAGCGGC,-0.171

row,Sequence,PBM E-score
1,GACGTGAA,-0.139
2,CTAGTCGC,-0.209
3,CTAGACAA,-0.0647
4,CAGGAACA,-0.0229
5,CCAAGTGG,-0.0395
6,GTATTGCA,0.0735
7,TATATTCA,0.235
8,TCTGTGAA,0.0383
9,CCCGATAA,-0.0584
10,CAGTTATA,0.073
11,TAGTACCA,0.0162
12,CGCTCGGA,0.105
13,AACCCCTC,-0.0978
14,ACCTTCCT,-0.197
15,CCGTAGAC,-0.157
16,CAATAACG,0.0405
17,CAAAAAAA,0.221
18,CATCAGCG,0.00868
19,ACGTGTTC,-0.146
20,TACGCTAA,0.116
21,TATATGGA,0.174
22,AGTTCCAC,0.0751
